Measured values reported in US20160279215A1, “NOVEL PEPTIDES AND COMBINATION OF PEPTIDES FOR USE IN IMMUNOTHERAPY AGAINST VARIOUS TUMORS” (immatics biotechnologies GmbH, priority 2015, published 2016).
For some of these results: For expression read-outs the peptide stands for its source gene, whose mRNA was measured; the gene is not named for every peptide.

Tests used:
Set-up in all cases: species or system human
[1] = Identification and label-free relative LC-MS quantitation of HLA-presented peptides on tumor and normal tissue samples (XPRESIDENT presentation profiles); conditions: for Entities of particular interest: entities where the peptide was over-presented on cancer samples compared to normal tissues; for Additional entities of particular interest (presentation of selected peptides across entities): tumor entities on which the HLA-presented peptide was found, entity abbreviations defined in the title of Table 4B
[2] = Absolute quantitation of TUMAP copies per cell in tumor samples by nanoLC-MS/MS; conditions: absolute peptide quantitation in tumor samples; median over samples
[3] = test system: source genes of the peptides (mRNA) in tumor and normal tissue; assay: Expression profiling of source genes by Affymetrix microarrays (target coverage); conditions: over-expression = more than 1.5-fold higher expression on tumor vs. normal tissue with highest expression, gene with minimal coverage decisive; for Target coverage for source genes of selected peptides, BPHI/PCA (%): BPHI/PCA (prostate cancer) samples; for Target coverage for source genes of selected peptides, CRC (%): CRC tumor samples; for Target coverage for source genes of selected peptides, GB (%): GB tumor samples; for Target coverage for source genes of selected peptides, GC (%): GC tumor samples; for Target coverage for source genes of selected peptides, HCC (%): HCC tumor samples; for Target coverage for source genes of selected peptides, NSCLC (%): NSCLC tumor samples; for Target coverage for source genes of selected peptides, PC (%): PC tumor samples; for Target coverage for source genes of selected peptides, RCC (%): RCC tumor samples
[4] = test system: source genes of the peptides (mRNA) in tumor and normal tissue; assay: Expression profiling of source genes by RNAseq (target coverage); conditions: share of tumors with more than 1.5-fold over-expression vs highest-expressing relevant normal tissue; for Target coverage for source genes, AML (%): acute myeloid leukemia; for Target coverage for source genes, BRCA (%): breast cancer; for Target coverage for source genes, CLL (%): chronic leukemia (CLL); for Target coverage for source genes, OSCAR (%): esophageal cancer incl. gastric-oesophageal junction; for Target coverage for source genes, GBC_CCC (%): gallbladder adenocarcinoma and cholangiocarcinoma; for Target coverage for source genes, NHL (%): non-Hodgkin lymphoma; for Target coverage for source genes, OC (%): ovarian cancer; for Target coverage for source genes, SCLC (%): small cell lung cancer; for Target coverage for source genes, UBC (%): urinary bladder cancer; for Target coverage for source genes, UTC (%): uterine cancer; for Target coverage for source genes, MEL (%): melanoma

Substance	Entities of particular interest [1]	Additional entities of particular interest (presentation of selected peptides across entities) [1]	Target coverage for source genes of selected peptides, BPHI/PCA (%) [3]	Target coverage for source genes of selected peptides, CRC (%) [3]	Target coverage for source genes of selected peptides, GB (%) [3]	Target coverage for source genes of selected peptides, GC (%) [3]	Target coverage for source genes of selected peptides, HCC (%) [3]	Target coverage for source genes of selected peptides, NSCLC (%) [3]	Target coverage for source genes of selected peptides, PC (%) [3]	Target coverage for source genes of selected peptides, RCC (%) [3]	Target coverage for source genes, AML (%) [4]	Target coverage for source genes, BRCA (%) [4]	Target coverage for source genes, CLL (%) [4]	Target coverage for source genes, OSCAR (%) [4]	Target coverage for source genes, GBC_CCC (%) [4]	Target coverage for source genes, NHL (%) [4]	Target coverage for source genes, OC (%) [4]	Target coverage for source genes, SCLC (%) [4]	Target coverage for source genes, UBC (%) [4]	Target coverage for source genes, UTC (%) [4]	further results
89 (SLAETIFIV; listed as Homo sapiens) [compound 89]	GC, NSCLC, OC	SCLC, GBC_CCC, RCC, NHL																			Copies per cell (median) [2]: +++ (>=1,000 +++)
85 (KLLDKPEQFL; listed as Homo sapiens) [compound 85]	NSCLC, OC, MEL, CRC	NHL																			Copies per cell (median) [2]: + (<100 = +)
21 (YLMDDFSSL; listed as Homo sapiens) [compound 21]	PC, NSCLC	OSCAR, OC, SCLC, UBC, BRCA, GBC_CCC, MEL, AML, NHL																			Copies per cell (median) [2]: + (<100 = +)
117 (TLLEGISRA; listed as Homo sapiens) [compound 117]	NSCLC, OC	BRCA																			Copies per cell (median) [2]: + (<100 = +)
41: peptide found in NCAPG (gene looked up) (IVTEIISEI; listed as Homo sapiens) [compound 41]		CLL, SCLC, UTC, GBC_CCC, AML, NHL	I (<19% over-expression = I)	IV (>70% = IV)	III (50-69% = III)	III (50-69% = III)	I (<19% over-expression = I)	III (50-69% = III)	I (<19% over-expression = I)	I (<19% over-expression = I)	I (<19% over-expression = I)	I (<19% over-expression = I)	I (<19% over-expression = I)	I (<19% over-expression = I)	I (<19% over-expression = I)	I (<19% over-expression = I)	I (<19% over-expression = I)	II (20-49% = II)	I (<19% over-expression = I)	I (<19% over-expression = I)	
270: peptide found in FANCI (gene looked up) (TLLTFFHEL; listed as Homo sapiens) [compound 270]	GB, PC	UTC, GBC_CCC, AML, NHL	I (<19% over-expression = I)	III (50-69% = III)	II (20-49% = II)	II (20-49% = II)	I (<19% over-expression = I)	II (20-49% = II)	I (<19% over-expression = I)	I (<19% over-expression = I)	I (<19% over-expression = I)	I (<19% over-expression = I)	I (<19% over-expression = I)	II (20-49% = II)	I (<19% over-expression = I)	I (<19% over-expression = I)	I (<19% over-expression = I)	II (20-49% = II)	I (<19% over-expression = I)	I (<19% over-expression = I)	Target coverage for source genes, MEL (%) [4]: II (20-49% = II)
10: peptide found in KIF15 (gene looked up) (QLIEKNWLL; listed as Homo sapiens) [compound 10]	NSCLC, OC, CRC, PC, HCC, CLL, OSCAR	SCLC, UBC, UTC, BRCA, GBC_CCC, MEL, AML, NHL	I (<19% over-expression = I)	IV (>70% = IV)	IV (>70% = IV)	IV (>70% = IV)	II (20-49% = II)	III (50-69% = III)	II (20-49% = II)	I (<19% over-expression = I)	I (<19% over-expression = I)	I (<19% over-expression = I)	I (<19% over-expression = I)	I (<19% over-expression = I)	I (<19% over-expression = I)	II (20-49% = II)	I (<19% over-expression = I)	II (20-49% = II)	I (<19% over-expression = I)	I (<19% over-expression = I)	Target coverage for source genes, MEL (%) [4]: I (<19% over-expression = I)
277: peptide found in HMMR (gene looked up) (KLQEELNKV; listed as Homo sapiens) [compound 277]	HCC, OC	NSCLC, OSCAR, UBC, BRCA, NHL	I (<19% over-expression = I)	III (50-69% = III)	I (<19% over-expression = I)	III (50-69% = III)	I (<19% over-expression = I)	II (20-49% = II)	I (<19% over-expression = I)	I (<19% over-expression = I)	I (<19% over-expression = I)	I (<19% over-expression = I)	I (<19% over-expression = I)	I (<19% over-expression = I)	I (<19% over-expression = I)	I (<19% over-expression = I)	I (<19% over-expression = I)	I (<19% over-expression = I)	I (<19% over-expression = I)	I (<19% over-expression = I)	Target coverage for source genes, MEL (%) [4]: I (<19% over-expression = I)
271: peptide found in FANCI (gene looked up) (VLIEYNFSI; listed as Homo sapiens) [compound 271]	NSCLC, OC	CLL, SCLC, MEL, AML, NHL	I (<19% over-expression = I)	III (50-69% = III)	II (20-49% = II)	II (20-49% = II)	I (<19% over-expression = I)	II (20-49% = II)	I (<19% over-expression = I)	I (<19% over-expression = I)	I (<19% over-expression = I)	I (<19% over-expression = I)	I (<19% over-expression = I)	III (50-69% = III)	I (<19% over-expression = I)	I (<19% over-expression = I)	I (<19% over-expression = I)	II (20-49% = II)	I (<19% over-expression = I)	I (<19% over-expression = I)	Target coverage for source genes, MEL (%) [4]: II (20-49% = II)
